The other results are listed elsewhere or left out.

By UniProt entry, the sequences of proteins in these tests, tags left out.
UniProt Q0JBA9, entry or part of it: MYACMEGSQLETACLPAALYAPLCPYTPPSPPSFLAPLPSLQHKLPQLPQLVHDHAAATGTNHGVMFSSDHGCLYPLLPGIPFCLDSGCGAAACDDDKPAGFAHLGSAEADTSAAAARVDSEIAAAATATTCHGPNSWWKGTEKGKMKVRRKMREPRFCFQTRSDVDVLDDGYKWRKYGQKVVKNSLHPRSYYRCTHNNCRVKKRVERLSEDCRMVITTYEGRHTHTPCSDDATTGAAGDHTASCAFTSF

The target in the experiment is OsWRKY34 (Oryza sativa, UniProt Q0JBA9 1-250). The experiment is described as follows: protein-binding microarray (RPBM); PBS, 2% BSA, 51.3 ng/ul salmon testes DNA, 50 uM zinc acetate, 200 nM TF, 25 C, 1 h; high values mean tight binding. The settings on record: protein: recombinant; tags: N-terminal polyhistidine and DsRed monomer fusion (pET32a); label: CyDye5-dUTP incorporated in the synthesized complementary strand; 3' TTTTT single-stranded linker to array surface; dsDNA, one strand shown. In a few lines: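 Polyhistidine-tagged DsRed fusions of transcription factors, joined at the N-terminus, were expressed in E. coli BL21-CodonPlus and isolated on Ni–NTA. They were incubated at 200 nM for 1 h at 25 °C on a custom Agilent array, double-stranded and BSA-blocked, in PBS with 2% BSA, salmon testes DNA and 50 µM zinc acetate. The binding signal is per-feature fluorescence intensity (arbitrary units) read on an Axon 4000B scanner after washing.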
Regarding “CTCGTCTCTTGCCGTCTTTTGTCCGCAAGTCTCGTGCTCTCGGAGTCACCTAGTGCAG”, the binding signal is 8750 fluorescence intensity (a.u.). To “CTCCTTTTCAATACCTGGGTAGGGGTTGGTAATTGGCAGGCGGAGTCACCTAGTGCAG” belongs 10400 fluorescence intensity (a.u.); to “GCCCATGTGAAAGACCAACGGATAACTCCAGTTTTTGTTTCGGAGTCACCTAGTGCAG”, 9330 fluorescence intensity (a.u.); to “CTTACTACCTCCGTATTTTAGTGTATGATGCCGTTGACTTCGGAGTCACCTAGTGCAG”, 14500 fluorescence intensity (a.u.).

On to “CCGCACATCGCGTTCGTTCCGCTGCTTCCGCCGCATCCTGCGGAGTCACCTAGTGCAG”, for which the binding signal is 14700 fluorescence intensity (a.u.). “CCCCGCGTCCACTTCTCCACTCCCACCACCACCATGCAACCGGAGTCACCTAGTGCAG”: the binding signal was 8450 fluorescence intensity (a.u.). The result for “GTGCCGCTTGCGTCGCGCTCGCCGGCCCCGCTCTCGTCGCCGGAGTCACCTAGTGCAG” reads 8150 fluorescence intensity (a.u.). To “ATTTGAGTTCAATTTTTCTATGGTTGGTTCTTGTGTGTTCCGGAGTCACCTAGTGCAG” belongs 13700 fluorescence intensity (a.u.); to “ATTCTTTTCCTATCATTTGATTCATTGTTAAATATATTTTCGGAGTCACCTAGTGCAG”, 9910 fluorescence intensity (a.u.). To “CTCGTCACTGTCTTGTACTCCCTCCGTTTCAAAATATTTGCGGAGTCACCTAGTGCAG” belongs 12800 fluorescence intensity (a.u.); to “GTAGTAGTGATATAGTTTCTCTCTTCTCACAAGCAGCTCACGGAGTCACCTAGTGCAG”, 8850 fluorescence intensity (a.u.); to “TTTTTTCTGTAAGGTGTCATATTTCTTCAATTGATGGATACGGAGTCACCTAGTGCAG”, 8340 fluorescence intensity (a.u.). As for “AGCATCCACACGTGCGTTTCTTTTCTTTTCTTTCCGGCCGCGGAGTCACCTAGTGCAG”, the binding signal is 8060 fluorescence intensity (a.u.). The result for “TAGTTTCTAAGTTTTTCTTCAAACTTCCAACTTTTTTATCCGGAGTCACCTAGTGCAG” reads 8630 fluorescence intensity (a.u.); that for “GATCTCATCCCGTCCCGTCATCTGCTTCCTCTCTCGGAACCGGAGTCACCTAGTGCAG”, 16900 fluorescence intensity (a.u.). The result for “ACTCCGCCCTGTCCATGATGCTCTACCTCCGTATTGCTAACGGAGTCACCTAGTGCAG” reads 8080 fluorescence intensity (a.u.).

Regarding “CCACCGGCCGATCTCCTCTTCCACAGCCCTACATCCCAAACGGAGTCACCTAGTGCAG”, the binding signal was 8350 fluorescence intensity (a.u.). To “AGTTCCCGTAGTATCTAAACTGCACTCCACCGCACATAGACGGAGTCACCTAGTGCAG” belongs 8770 fluorescence intensity (a.u.); to “ATCGCCGTCGCCGTCGCCTTCGCCTTCGCCTTCGTCGAGCCGGAGTCACCTAGTGCAG”, 8830 fluorescence intensity (a.u.); to “CACTTAACTAGTCAACGCTTTTGACAGCGGCGTTCTTCATCGGAGTCACCTAGTGCAG”, 10000 fluorescence intensity (a.u.). The result for “ATACATATGCACTCCATCCCTTCAATTGTAATCCAAGATACGGAGTCACCTAGTGCAG” reads 8380 fluorescence intensity (a.u.). With “GTAAAATATCGAGTTCGCACATCTTGTTGTCTGATTATTGCGGAGTCACCTAGTGCAG”, the binding signal was 10800 fluorescence intensity (a.u.). For the sequence “TGAGGTGGTGTTCTTGCTGTTCTTGTTATTTTTTTCTTTTCGGAGTCACCTAGTGCAG”, the binding signal is 15600 fluorescence intensity (a.u.).

In the case of “CAGCCTTATATTTGATCCCTATCCAGGCATTCACCAGCATCGGAGTCACCTAGTGCAG”, the binding signal was 8330 fluorescence intensity (a.u.).

As for “CTCCACACTGCCTCGCCAACCAACCACCGCTACACACGAGCGGAGTCACCTAGTGCAG”, the binding signal was 8690 fluorescence intensity (a.u.). The result for “GGGGCGCCGGGAAGGAGGGCGCTGTGTGGGAGGGAGGGAGCGGAGTCACCTAGTGCAG” reads 17100 fluorescence intensity (a.u.); that for “CAGGCATGTCCAGTATAGGTGTTATTATATTTTATTATTACGGAGTCACCTAGTGCAG”, 8910 fluorescence intensity (a.u.). The result for “CAGCAATTCATTGTGCAATCACCATCGTCAATCGTGTCGTCGGAGTCACCTAGTGCAG” reads 8130 fluorescence intensity (a.u.). The result for “TCCTTTGCCTTCAAAGGCATCGTGCCTTTGTCACTTACATCGGAGTCACCTAGTGCAG” reads 8820 fluorescence intensity (a.u.). Consider “TTTGCCCATTTTATTCCCTTGCGTCATCCATTTACTGCTTCGGAGTCACCTAGTGCAG”, for which the binding signal was 9470 fluorescence intensity (a.u.). The result for “TAACTGCGTTGACATGTCGCCTTGCTATACTCACATTCTTCGGAGTCACCTAGTGCAG” reads 9470 fluorescence intensity (a.u.).

For “ACATTCCTAATTAATTCGGTTTTTCGCCATTGGTGCATGTCGGAGTCACCTAGTGCAG”, the binding signal is 8040 fluorescence intensity (a.u.).

With “ACTGGACACCATAGCTTCTTCGCCCGTCGTTTGCCTATCTCGGAGTCACCTAGTGCAG”, the binding signal was 11600 fluorescence intensity (a.u.). To “TGCATTTCGATCACCTCGTCCTTCGTGGCGACATACCTTTCGGAGTCACCTAGTGCAG” belongs 8620 fluorescence intensity (a.u.); to “GCTCACGGCTCACCTATAAATAAGCAGCTTTGCCTCTCACCGGAGTCACCTAGTGCAG”, 8400 fluorescence intensity (a.u.); to “AAATAATATATTGTACCTAGGAGTTATTCCCTCCGTCCCACGGAGTCACCTAGTGCAG”, 8870 fluorescence intensity (a.u.).

Take “AGGAGAGATGAGTTAGGGTGTGTTTAGTTCTTTGGGCGTACGGAGTCACCTAGTGCAG”: the binding signal was 12100 fluorescence intensity (a.u.). With “TGAGCAACAACCTCCTCTCCGGTGCAATTCCGGCGTTCTTCGGAGTCACCTAGTGCAG”, the binding signal is 8630 fluorescence intensity (a.u.).

As for “TTTATTGATTTGTTTCTCTGCTGTTTTCTTTCCAGCAAGGCGGAGTCACCTAGTGCAG”, the binding signal is 9300 fluorescence intensity (a.u.).

Turning to “CGGTGATCTCGCCGCCTCGACCATCCGCCCGCGAAATCCGCGGAGTCACCTAGTGCAG”, the binding signal was 8270 fluorescence intensity (a.u.). The result for “CATCCATCCACCCATAGCTATCTCTAGCTAGCTTGCACATCGGAGTCACCTAGTGCAG” reads 8590 fluorescence intensity (a.u.); that for “CTAGCTCGAGCTCCAATCTCTTGCTCACTCTCTGCTCAGTCGGAGTCACCTAGTGCAG”, 9230 fluorescence intensity (a.u.).

The record behind these values is PMC7819943, “Rice protein-binding microarrays: a tool to detect cis-acting elements near promoter regions in rice”.
